Assay results as given in article PMC4629891.

Sequences of proteins named here, by UniProt entry; tags and fusion partners are left off. A change or cut given only in a name is not applied to a line headed by its entry.
UniProt P19338: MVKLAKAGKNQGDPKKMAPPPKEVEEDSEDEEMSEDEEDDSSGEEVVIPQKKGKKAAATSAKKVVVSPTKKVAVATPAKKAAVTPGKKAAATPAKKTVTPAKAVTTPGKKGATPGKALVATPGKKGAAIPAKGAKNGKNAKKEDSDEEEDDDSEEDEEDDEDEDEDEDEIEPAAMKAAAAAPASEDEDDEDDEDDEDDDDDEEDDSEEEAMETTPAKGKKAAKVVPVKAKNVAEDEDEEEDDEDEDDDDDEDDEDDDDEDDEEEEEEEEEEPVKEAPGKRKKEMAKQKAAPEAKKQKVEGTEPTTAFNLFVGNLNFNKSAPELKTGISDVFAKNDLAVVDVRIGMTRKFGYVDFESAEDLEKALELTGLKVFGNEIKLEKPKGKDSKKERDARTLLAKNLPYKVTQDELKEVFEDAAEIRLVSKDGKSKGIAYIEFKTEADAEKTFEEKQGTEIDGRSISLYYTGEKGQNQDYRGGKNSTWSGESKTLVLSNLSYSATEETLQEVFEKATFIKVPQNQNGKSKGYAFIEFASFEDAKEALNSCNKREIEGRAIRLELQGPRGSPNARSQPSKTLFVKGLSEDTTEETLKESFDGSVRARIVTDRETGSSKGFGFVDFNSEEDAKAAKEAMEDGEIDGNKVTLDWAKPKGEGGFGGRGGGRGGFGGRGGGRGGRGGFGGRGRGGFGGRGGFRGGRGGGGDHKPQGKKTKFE

Key:
[1] = biological target: nucleolin (on the surface of live Huh7 cells) (UniProt P19338); experiment: flow cytometry on live Huh7 cells; settings: 5 mM MgCl2, 200 nM DNA, Dulbecco's PBS, 4.5 g/L glucose, 5 mM MgCl2, 0.1 mg/mL yeast tRNA, 1 mg/mL BSA, on ice 30 min, 2x10^5 cells in 200 uL, pH not stated, protein on the cell surface, label: 5'-biotin (streptavidin-PE detection), single-stranded DNA
[2] = biological target: nucleolin (on the surface of live HCO2 cells) (UniProt P19338); experiment: confocal microscopy of live HCO2 cells; settings: 200 nM, 30 min, room temperature; Dulbecco's PBS, 4.5 g/L glucose, 5 mM MgCl2, 0.1 mg/mL yeast tRNA, 1 mg/mL BSA, on ice 30 min; 2x10^5 cells in 200 uL; pH not stated; protein on the cell surface; folded or branched DNA
[3] = biological target: nucleolin (on the surface of live Huh7 cells) (UniProt P19338); experiment: confocal microscopy of live Huh7 cells; settings: 200 nM, 30 min, room temperature; Dulbecco's PBS, 4.5 g/L glucose, 5 mM MgCl2, 0.1 mg/mL yeast tRNA, 1 mg/mL BSA, on ice 30 min; 2x10^5 cells in 200 uL; pH not stated; protein on the cell surface; folded or branched DNA

“CGACGACGACGACGACGACGACGACGACGA [control-Dox adduct]”: no binding ([1]; doxorubicin adducts via formaldehyde).

“CGACGACGACGACGACGACGACGACGACGA [Control DNA]”: no binding [1].

“GGTGGTGGTGGTTGTGGTGGTGGTGG [AS1411-FITC]”: binds [2]; binds [3].

For at least one entry, the source does not settle the construct or the ends of the probe. At least one result comes from cells or an extract, where the contact may be indirect. For some of these results: A negative result means that nothing was seen under these conditions. For some of these results: At least one verdict was read from the data and is not stated in words by the source.
